We go through one molecule from patent US10227347B2, “Purinyl-N-hydroxyl pyrimidine formamide derivative, preparation methods and uses thereof” (Guizhou Bailing Group Pharmaceutical CO., LTD., priority 2015, dated 2019).

A value given as a limit tells only on which side of the number the result lay.

As a reminder, the EC50 is the concentration giving half of the maximal effect. By IC50 is commonly meant the midpoint of a concentration-inhibition curve.

Common to all, as to assay type: cell-based
Assay [1] has as its system acetylated Ac-α-tubulin in A2780s cells. Put plainly: Induction of α-tubulin acetylation in A2780s cells (cytoblot). The following applies: Homo sapiens, 6 h treatment, read-out: Ac-Tub EC50. Here is the method:
(§1) Specific operation: After the treatment, washing each well once with 50-100 μl of cold TBS buffer [with the composition as 20 mM Tris (trismetyl aminomethane), pH7.5] and fixing it with 100 μL of 4% pre-cooled paraformaldehyde at 4° C. for 1 h; after paraformaldehyde is washed off, adding 50 μL of pre-cooled methyl alcohol in each well and evenly spreading at 4° C. for 5 min; after methyl alcohol is washed off, washing it once with the TBS buffer containing 3% skim milk powder and adding 50 μL of antibody fluid, oscillating it slightly at 4° C. and incubating overnight. […] Discarding the antibody fluid in the next day and washing it twice with TBS buffer; then adding enhanced chemiluminescence (ECL) liquid (which is purchased from Abbkine Company), determining the chemiluminescence intensity with a microplate reader, and analyzing the result data with the software GraphPad Prism. […]

For assay [2], the system named is MV4-11 cells (acute myeloid leukemia). Put plainly: Cell proliferation inhibition, MV4-11 (cck-8). The note with it: Homo sapiens, 96 h incubation. Here is the method: (§2) The tumor cell lines are purchased from American Type Culture Collection (ATCC) and cultivated to the status of logarithmic growth as per the cultural method recommended by ATCC. The cells in logarithmic phase are spread on a 96 well plate as per 2000-3000/well; as for anchorage-dependent cells, the compound should be added in the test wells at certain concentration for incubation for 96 h after cell adherence. Determining cell proliferation activities with method MTT for tumor cells representing solid tumor model and with method cck-8 for tumor cells representing hematologic tumor model, and analyzing the result data with the software GraphPad Prism.
(§3) Calculating the value of IC50 as per the formula: Y=background data+(top data−background data)/(1+10^((Log IC50−X)*rate of curve)). Where, Y refers to the inhibition ratio (%) and X refers to the compound concentration.

For assay [3], the system named is A2780s cells (ovarian cancer). Put plainly: Cell proliferation inhibition, A2780s (MTT). The note with it: Homo sapiens, 96 h incubation. Here is the method: as §2, §3
The test system of assay [4] is hct116 cells (colon cancer). As to the kind of experiment: Cell proliferation inhibition, hct116 (MTT). The following applies: Homo sapiens, HCT-116; 96 h incubation. As for the experimental part: as §2, §3
Assay [5] relates to acetylated histone H3 (Ac-H3) in A2780s cells. Put plainly: Induction of histone H3 acetylation in A2780s cells (cytoblot). The note with it: Homo sapiens, 6 h treatment. Here is the method: as §1

`O=C(CCCCCCC(=O)Nc1ccccc1)NO` [SAHA, vorinostat, reference compound]: the EC50 in assay [1] and in assay [5] was greater than 200 nM throughout. Also, the IC50 in assay [2] was 100 to 1000 nM; in assay [3], greater than 1000 nM; in assay [4] it was 100 to 1000 nM.
